Experimental data published in paper PMC5087487, “A Graphene Oxide-Based Fluorescent Method for the Detection of Human Chorionic Gonadotropin” (Sensors (Basel, Switzerland), 2016).
Results are given in words; binding and its absence hold for the method and conditions named.

Biological target: T1, FITC-labeled hCG-specific binding peptide aptamer FITC-…
T1 sequence (peptide, fluorescein isothiocyanate (FITC) on the N-terminus): PPLRINRHILTR
Experiment: other fluorescence titration; 50 nM FITC-peptide first adsorbed on graphene oxide (2 ug/mL, 10 min, fluorescence quenched); protein added, 15 min at room temperature, PBS 20 mM pH 7.2; recovery of fluorescence (excitation 470 nm, emission 518 nm) on release of the peptide from GO; both purified

Substance: Thrombin (enzyme)
- binding: no binding (tested: 10 ng/mL)
